Laboratory results taken from patent publication US20230225977A1, “FORMULATION COMPRISING DAPRODUSTAT” (GLAXOSMITHKLINE INTELLECTUAL PROPERTY (NO.2) LIMITED, priority 2020, published 2023).
For at least one compound, name, drawing or mass did not settle the structure.

Assay: Flowability: Compressibility Index from bulk and tapped density (USP <616>)
Assay type: physicochemical

O=C(O)CNC(=O)C1C(=O)N(C2CCCCC2)C(=O)N(C2CCCCC2)C1=O [N-[(1,3-dicyclohexyl-6-hydroxy-2,4-dioxo-1,2,3,4-tetrahydro-5-pyrimidinyl)carbony]glycine]
Compressibility Index (100×(1−Bulk density/Tapped density), >25 indicates poor flowability, <15 good flowability): > 65
bulk density (USP <616> bulk density of powder): < 0.2 g/mL
